The experiment has as its target FLAG-tagged BAP1 (BRCA1-associated protein 1) in SK-N-SH cells (human) (UniProt Q92560). In words: affinity purification with mass spectrometry; immunoprecipitation of FLAG-tagged BAP1 in SK-N-SH cells, in-gel digestion, LC-MS/MS (Orbitrap Fusion).

Chains of the proteins cited; added tags and fusions are not shown.
UniProt Q92560: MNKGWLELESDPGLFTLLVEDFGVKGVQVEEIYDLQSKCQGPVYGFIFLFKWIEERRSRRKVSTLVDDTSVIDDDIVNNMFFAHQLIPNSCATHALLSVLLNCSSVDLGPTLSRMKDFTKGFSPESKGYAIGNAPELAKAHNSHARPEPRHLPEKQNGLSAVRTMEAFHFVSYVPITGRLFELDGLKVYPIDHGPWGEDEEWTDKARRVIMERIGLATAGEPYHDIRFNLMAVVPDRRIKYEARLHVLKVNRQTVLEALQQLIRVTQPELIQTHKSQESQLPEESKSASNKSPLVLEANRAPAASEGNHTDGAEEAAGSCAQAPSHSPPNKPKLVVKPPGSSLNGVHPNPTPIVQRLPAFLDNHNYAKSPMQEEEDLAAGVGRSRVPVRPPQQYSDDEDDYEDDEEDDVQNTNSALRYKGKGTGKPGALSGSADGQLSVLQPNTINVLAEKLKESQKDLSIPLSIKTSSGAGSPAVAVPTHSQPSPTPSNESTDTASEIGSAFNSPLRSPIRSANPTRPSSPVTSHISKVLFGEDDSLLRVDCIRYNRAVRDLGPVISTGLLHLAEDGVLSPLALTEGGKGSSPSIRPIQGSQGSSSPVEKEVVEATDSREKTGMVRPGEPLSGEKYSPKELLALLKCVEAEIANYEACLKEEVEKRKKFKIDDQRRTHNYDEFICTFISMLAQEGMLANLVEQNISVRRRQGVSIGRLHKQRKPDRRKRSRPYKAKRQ
UniProt P31946: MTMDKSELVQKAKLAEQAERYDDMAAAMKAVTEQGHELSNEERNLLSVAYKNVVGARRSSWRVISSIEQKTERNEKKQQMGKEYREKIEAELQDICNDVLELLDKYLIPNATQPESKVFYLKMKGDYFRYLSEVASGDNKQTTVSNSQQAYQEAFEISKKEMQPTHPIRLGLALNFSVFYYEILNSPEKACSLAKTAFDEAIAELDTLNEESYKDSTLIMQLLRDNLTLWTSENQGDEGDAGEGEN
UniProt P62258: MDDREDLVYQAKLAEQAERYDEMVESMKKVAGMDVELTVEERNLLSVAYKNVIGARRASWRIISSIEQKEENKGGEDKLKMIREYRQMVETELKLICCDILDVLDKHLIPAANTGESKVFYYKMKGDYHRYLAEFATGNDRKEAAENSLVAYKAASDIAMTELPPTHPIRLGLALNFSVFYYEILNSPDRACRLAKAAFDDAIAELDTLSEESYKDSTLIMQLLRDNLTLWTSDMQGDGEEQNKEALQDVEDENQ
UniProt Q13185: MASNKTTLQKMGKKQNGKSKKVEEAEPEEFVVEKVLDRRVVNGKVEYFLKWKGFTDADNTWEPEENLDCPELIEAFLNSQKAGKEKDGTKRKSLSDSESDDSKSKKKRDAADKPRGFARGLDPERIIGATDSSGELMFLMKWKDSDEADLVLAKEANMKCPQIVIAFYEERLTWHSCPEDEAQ
UniProt O00410: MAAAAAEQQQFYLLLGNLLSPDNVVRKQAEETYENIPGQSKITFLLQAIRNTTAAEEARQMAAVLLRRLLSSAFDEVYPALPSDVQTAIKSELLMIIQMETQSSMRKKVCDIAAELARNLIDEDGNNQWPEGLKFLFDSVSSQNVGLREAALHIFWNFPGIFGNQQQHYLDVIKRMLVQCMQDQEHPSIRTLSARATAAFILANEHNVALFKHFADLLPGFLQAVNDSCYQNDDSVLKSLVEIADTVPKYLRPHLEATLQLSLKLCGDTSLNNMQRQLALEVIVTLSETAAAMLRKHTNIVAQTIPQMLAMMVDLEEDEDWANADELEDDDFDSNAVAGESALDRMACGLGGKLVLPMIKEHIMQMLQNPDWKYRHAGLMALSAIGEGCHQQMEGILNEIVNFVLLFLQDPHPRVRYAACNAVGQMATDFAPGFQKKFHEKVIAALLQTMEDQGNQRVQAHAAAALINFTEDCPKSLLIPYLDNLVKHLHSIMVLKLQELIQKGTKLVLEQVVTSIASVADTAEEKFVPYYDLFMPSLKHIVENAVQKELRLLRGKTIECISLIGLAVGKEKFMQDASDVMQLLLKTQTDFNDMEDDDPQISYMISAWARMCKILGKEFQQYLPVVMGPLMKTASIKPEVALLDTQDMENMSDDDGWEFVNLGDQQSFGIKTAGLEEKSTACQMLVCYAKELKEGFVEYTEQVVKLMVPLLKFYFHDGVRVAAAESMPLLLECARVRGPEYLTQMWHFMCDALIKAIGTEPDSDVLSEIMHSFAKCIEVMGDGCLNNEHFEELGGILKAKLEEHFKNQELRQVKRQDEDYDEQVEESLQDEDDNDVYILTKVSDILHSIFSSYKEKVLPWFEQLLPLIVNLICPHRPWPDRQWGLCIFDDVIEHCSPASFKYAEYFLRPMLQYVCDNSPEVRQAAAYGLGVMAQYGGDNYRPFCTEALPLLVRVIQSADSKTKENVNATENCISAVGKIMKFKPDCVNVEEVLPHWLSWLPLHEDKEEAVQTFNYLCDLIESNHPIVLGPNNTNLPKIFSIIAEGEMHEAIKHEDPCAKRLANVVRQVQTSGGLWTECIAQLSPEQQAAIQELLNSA

Results are given in words; binding and its absence hold for the method and conditions named. Binding seen in cells or lysates may run through a third protein. These calls come from enrichment with a bait or labelling near it, and not all partners need be listed.

For the substance “14-3-3-β (endogenous, SK-N-SH) (from UniProt P31946 1-246)”, the binding result is “binds”.

“14-3-3-ε (endogenous, SK-N-SH) (from UniProt P62258 1-255)”: the binding entry is “binds”.

As to CBX3 (from UniProt Q13185 1-183), the binding entry is reported as “binds”.

For IPO5 (from UniProt O00410 1-1097), the binding entry is “binds”.

Values taken from article PMC5913307.
